From PMC6885518 come the findings set out here.

Amino acid sequences for entries named in this document (tags omitted). Residues count along the entry.
UniProt Q01097, residues 27-1482: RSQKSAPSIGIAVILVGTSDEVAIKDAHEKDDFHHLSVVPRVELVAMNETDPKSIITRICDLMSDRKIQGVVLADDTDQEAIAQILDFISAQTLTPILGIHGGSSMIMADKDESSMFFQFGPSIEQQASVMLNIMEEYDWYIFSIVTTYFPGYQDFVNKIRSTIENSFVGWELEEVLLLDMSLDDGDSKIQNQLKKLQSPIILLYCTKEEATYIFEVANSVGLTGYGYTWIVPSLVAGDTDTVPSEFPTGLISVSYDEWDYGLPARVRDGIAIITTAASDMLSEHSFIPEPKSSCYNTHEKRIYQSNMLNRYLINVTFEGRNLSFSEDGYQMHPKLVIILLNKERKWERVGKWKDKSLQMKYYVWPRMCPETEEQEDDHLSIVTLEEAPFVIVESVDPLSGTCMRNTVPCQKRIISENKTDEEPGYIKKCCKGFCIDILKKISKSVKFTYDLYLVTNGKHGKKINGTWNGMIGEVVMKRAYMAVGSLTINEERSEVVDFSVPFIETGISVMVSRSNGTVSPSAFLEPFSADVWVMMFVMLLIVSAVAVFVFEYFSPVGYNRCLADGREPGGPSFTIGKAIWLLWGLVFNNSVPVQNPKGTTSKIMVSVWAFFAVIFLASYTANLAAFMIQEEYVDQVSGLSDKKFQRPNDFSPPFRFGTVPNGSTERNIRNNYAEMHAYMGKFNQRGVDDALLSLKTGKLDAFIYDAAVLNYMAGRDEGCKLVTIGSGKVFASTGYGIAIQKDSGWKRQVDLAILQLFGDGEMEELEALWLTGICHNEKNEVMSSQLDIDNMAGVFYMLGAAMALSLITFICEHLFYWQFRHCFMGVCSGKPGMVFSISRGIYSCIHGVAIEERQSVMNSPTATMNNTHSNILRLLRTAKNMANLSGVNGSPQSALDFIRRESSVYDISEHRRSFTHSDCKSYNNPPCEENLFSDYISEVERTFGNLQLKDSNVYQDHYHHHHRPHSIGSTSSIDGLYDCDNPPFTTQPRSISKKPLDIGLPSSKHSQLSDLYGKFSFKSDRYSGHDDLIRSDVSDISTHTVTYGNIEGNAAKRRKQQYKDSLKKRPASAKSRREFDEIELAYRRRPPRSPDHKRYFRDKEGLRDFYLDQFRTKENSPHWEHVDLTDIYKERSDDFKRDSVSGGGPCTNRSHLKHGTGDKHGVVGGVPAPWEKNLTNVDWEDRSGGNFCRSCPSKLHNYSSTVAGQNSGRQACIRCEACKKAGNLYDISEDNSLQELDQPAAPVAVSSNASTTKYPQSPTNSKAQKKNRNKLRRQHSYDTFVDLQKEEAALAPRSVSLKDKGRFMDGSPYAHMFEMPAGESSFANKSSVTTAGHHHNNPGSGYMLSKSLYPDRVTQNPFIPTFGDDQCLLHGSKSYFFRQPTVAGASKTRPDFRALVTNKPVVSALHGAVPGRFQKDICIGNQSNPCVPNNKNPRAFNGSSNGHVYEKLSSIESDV
UniProt Q62083: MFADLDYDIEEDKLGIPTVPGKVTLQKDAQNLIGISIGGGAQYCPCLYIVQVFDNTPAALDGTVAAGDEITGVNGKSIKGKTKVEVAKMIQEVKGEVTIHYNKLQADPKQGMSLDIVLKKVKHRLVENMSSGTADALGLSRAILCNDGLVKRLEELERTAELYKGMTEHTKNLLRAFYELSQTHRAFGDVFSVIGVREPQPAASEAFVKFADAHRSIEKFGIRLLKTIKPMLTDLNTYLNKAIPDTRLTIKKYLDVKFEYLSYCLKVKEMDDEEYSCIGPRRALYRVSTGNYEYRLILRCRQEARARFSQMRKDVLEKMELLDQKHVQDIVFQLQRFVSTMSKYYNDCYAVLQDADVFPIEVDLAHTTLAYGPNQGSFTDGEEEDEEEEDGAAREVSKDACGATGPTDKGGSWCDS

In test [1] the target is N-methyl D-aspartate receptor subtype 2B (NR2B), wild type, Flag-tagged (UniProt Q01097). The test can be described thus: co-IP; HEK293T cells co-transfected with NR2B-Flag (WT, S2A or S2E), PKCα-HA and PICK1-Myc, lysed 36 h after transfection (50 mM Tris-HCl pH 7.4, 1% Triton X-100, 1 mM EDTA, 10 mM NaF, 1 mM Na3VO4); IP with mouse anti-DDDDK, anti-HA or anti-Myc antibody or control IgG, 6 h at 4 °C, protein A/G agarose overnight; blots with rabbit anti-tag antibodies.

For test [2], the target named is protein interacting with C kinase 1 (PICK1), Myc-tagged (UniProt Q62083). The test is described as above.

Results are given in words; binding and its absence hold for the method and conditions named. Binding seen in cells or lysates may run through a third protein. Some binding calls cover weakened binding; strength is not graded here.

Regarding “protein interacting with C kinase 1 (PICK1), Myc-tagged (from UniProt Q62083 1-416)”, the binding entry in test [1] is “binds”.

As for “protein kinase Cα (PKCα), HA-tagged (from UniProt P20444 1-672) (enzyme)”, the binding result in test [2] is on record as “binds”.
